# Some of the results follow.
# What was measured:
# Test in all cases: glycan array binding signal (z-score within array); higher = stronger binding
# Settings in all cases: glycan notation: IUPAC condensed, linker removed
# [1] = biological target: Gal(b1-4)GlcNAc(b1-2)Man(a1-6)[GlcNAc(b1-2)Man(a1-3)]Man(b1-4)GlcNAc(b1-4)GlcNAc
# Method in brief: (§1)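 From the Consortium for Functional Glycomics database, 3228 arrays were curated, keeping only those whose protein sequence was available. Binding is given as a within-array Z-score averaged across arrays sharing a protein sequence and across linkers. Negative Z-scores can be read as non-binding.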
# [2] = biological target: Gal(b1-4)GlcNAc(b1-2)Man(a1-6)[Man(a1-3)]Man(b1-4)GlcNAc(b1-4)GlcNAc
# Method in brief: as §1
# [3] = biological target: Gal(b1-4)GlcNAc(b1-2)[Gal(b1-4)GlcNAc(b1-4)]Man(a1-3)[Gal(b1-4)GlcNAc(b1-2)Man(a1-6)]Man(b1-4)GlcNAc(b1-4)GlcNAc
# Method in brief: as §1
# [4] = biological target: Gal(b1-4)GlcNAc(b1-2)[Gal(b1-4)GlcNAc(b1-4)]Man(a1-3)[Gal(b1-4)GlcNAc(b1-2)[Gal(b1-4)GlcNAc(b1-6)]Man(a1-6)]Man(b1-4)GlcNAc(b1-4)GlcNAc
# Method in brief: as §1
# [5] = biological target: Gal(b1-4)GlcNAc(b1-2)[Gal(b1-4)GlcNAc(b1-4)]Man(a1-3)[GlcNAc(b1-4)][Gal(b1-4)GlcNAc(b1-2)Man(a1-6)]Man(b1-4)GlcNAc(b1-4)GlcNAc
# Method in brief: as §1
# [6] = biological target: Gal(b1-4)GlcNAc(b1-2)[Gal(b1-4)GlcNAc(b1-4)]Man(a1-3)[GlcNAc(b1-4)][Gal(b1-4)GlcNAc(b1-2)[Gal(b1-4)GlcNAc(b1-6)]Man(a1-6)]Man(b1-4)GlcNAc(b1-4)GlcNAc
# Method in brief: as §1
# [7] = biological target: Gal(b1-4)GlcNAc(b1-2)[Gal(b1-4)GlcNAc(b1-6)]Man(a1-6)[Gal(b1-4)GlcNAc(b1-2)Man(a1-3)]Man(b1-4)GlcNAc(b1-4)GlcNAc
# Method in brief: as §1
# [8] = biological target: Gal(b1-4)GlcNAc(b1-2)[Gal(b1-4)GlcNAc(b1-6)]Man(a1-6)[Gal(b1-4)GlcNAc(b1-2)Man(a1-3)]Man(b1-4)GlcNAc(b1-4)[Fuc(a1-6)]GlcNAc
# Method in brief: as §1
# [9] = biological target: Gal(b1-4)GlcNAc(b1-2)[Gal(b1-4)GlcNAc(b1-6)]Man(a1-6)[GlcNAc(b1-4)][Gal(b1-4)GlcNAc(b1-2)Man(a1-3)]Man(b1-4)GlcNAc(b1-4)GlcNAc
# Method in brief: as §1
# [10] = biological target: Gal(b1-4)GlcNAc(b1-2)[Gal(b1-4)GlcNAc(b1-6)]Man(a1-6)[GlcNAc(b1-4)][Gal(b1-4)GlcNAc(b1-2)[Gal(b1-4)GlcNAc(b1-4)]Man(a1-3)]Man(b1-4)GlcNAc(b1-4)[Fuc(a1-6)]GlcNAc
# Method in brief: as §1
# [11] = biological target: Gal(b1-4)GlcNAc(b1-3)Gal(b1-3)GalNAc
# Method in brief: as §1
# [12] = biological target: Gal(b1-4)GlcNAc(b1-3)Gal(b1-3)GlcNAc
# Method in brief: as §1
# [13] = biological target: Gal(b1-4)GlcNAc(b1-3)Gal(b1-4)Glc
# Method in brief: as §1
# [14] = biological target: Gal(b1-4)GlcNAc(b1-3)Gal(b1-4)GlcNAc
# Method in brief: as §1
# [15] = biological target: Gal(b1-4)GlcNAc(b1-3)Gal(b1-4)GlcNAc(b1-2)Man(a1-3)[Gal(b1-4)GlcNAc(b1-3)Gal(b1-4)GlcNAc(b1-2)Man(a1-6)]Man(b1-4)GlcNAc(b1-4)GlcNAc
# Method in brief: as §1
# [16] = biological target: Gal(b1-4)GlcNAc(b1-3)Gal(b1-4)GlcNAc(b1-2)Man(a1-3)[Gal(b1-4)GlcNAc(b1-3)Gal(b1-4)GlcNAc(b1-2)Man(a1-6)]Man(b1-4)GlcNAc(b1-4)[Fuc(a1-6)]GlcNAc
# Method in brief: as §1
# [17] = biological target: Gal(b1-4)GlcNAc(b1-3)Gal(b1-4)GlcNAc(b1-2)[Gal(b1-4)GlcNAc(b1-3)Gal(b1-4)GlcNAc(b1-6)]Man(a1-6)[Gal(b1-4)GlcNAc(b1-3)Gal(b1-4)GlcNAc(b1-2)Man(a1-3)]Man(b1-4)GlcNAc(b1-4)GlcNAc
# Method in brief: as §1
# [18] = biological target: Gal(b1-4)GlcNAc(b1-3)Gal(b1-4)GlcNAc(b1-2)[Gal(b1-4)GlcNAc(b1-3)Gal(b1-4)GlcNAc(b1-6)]Man(a1-6)[Gal(b1-4)GlcNAc(b1-3)Gal(b1-4)GlcNAc(b1-2)Man(a1-3)]Man(b1-4)GlcNAc(b1-4)[Fuc(a1-6)]GlcNAc
# Method in brief: as §1
# [19] = biological target: Gal(b1-4)GlcNAc(b1-3)Gal(b1-4)GlcNAc(b1-3)Gal(b1-4)GlcNAc
# Method in brief: as §1
# [20] = biological target: Gal(b1-4)GlcNAc(b1-3)Gal(b1-4)GlcNAc(b1-3)Gal(b1-4)GlcNAc(b1-2)Man(a1-3)[Gal(b1-4)GlcNAc(b1-3)Gal(b1-4)GlcNAc(b1-3)Gal(b1-4)GlcNAc(b1-2)Man(a1-6)]Man(b1-4)GlcNAc(b1-4)GlcNAc
# Method in brief: as §1
# [21] = biological target: Gal(b1-4)GlcNAc(b1-3)Gal(b1-4)GlcNAc(b1-3)Gal(b1-4)GlcNAc(b1-2)Man(a1-3)[Gal(b1-4)GlcNAc(b1-3)Gal(b1-4)GlcNAc(b1-3)Gal(b1-4)GlcNAc(b1-2)Man(a1-6)]Man(b1-4)GlcNAc(b1-4)[Fuc(a1-6)]GlcNAc
# Method in brief: as §1
# [22] = biological target: Gal(b1-4)GlcNAc(b1-3)Gal(b1-4)GlcNAc(b1-3)Gal(b1-4)GlcNAc(b1-2)[Gal(b1-4)GlcNAc(b1-3)Gal(b1-4)GlcNAc(b1-3)Gal(b1-4)GlcNAc(b1-6)]Man(a1-6)[Gal(b1-4)GlcNAc(b1-3)Gal(b1-4)GlcNAc(b1-3)Gal(b1-4)GlcNAc(b1-2)Man(a1-3)]Man(b1-4)GlcNAc(b1-4)[Fuc(a1-6)]GlcNAc
# Method in brief: as §1
binder,measurement,setting,value
"CD34 (Homo sapiens), P28906 (protein) MGSSHHHHHHSSGLVPRGSHMSTSLATSPTKPYTSSSPILSDIKAEIKCSGIREVKLTQGICLEQNKTSSCAEFKKDRGEGLARVLCGEEQADADAGAQVCSLLLAQSEVRPQCLLLVLANRTEISSKLQLMKKHQSDLKKLGILDFTEQDVASHQSYSQKT",glycan array binding signal (z-score),[1],-0.244
same,glycan array binding signal (z-score),[2],0.744
same,glycan array binding signal (z-score),[3],0.015
same,glycan array binding signal (z-score),[4],-1.26
same,glycan array binding signal (z-score),[5],-0.374
same,glycan array binding signal (z-score),[6],-0.897
same,glycan array binding signal (z-score),[7],-0.699
same,glycan array binding signal (z-score),[8],0.06
same,glycan array binding signal (z-score),[9],-0.361
same,glycan array binding signal (z-score),[10],-1.22
same,glycan array binding signal (z-score),[11],-0.267
same,glycan array binding signal (z-score),[12],-0.177
same,glycan array binding signal (z-score),[13],-0.408
same,glycan array binding signal (z-score),[14],-0.183
same,glycan array binding signal (z-score),[15],0.765
same,glycan array binding signal (z-score),[16],0.981
same,glycan array binding signal (z-score),[17],2.58
same,glycan array binding signal (z-score),[18],-0.94
same,glycan array binding signal (z-score),[19],-0.296
same,glycan array binding signal (z-score),[20],0.189
same,glycan array binding signal (z-score),[21],0.851
same,glycan array binding signal (z-score),[22],0.537

# Looked up one by one from the list above (2):
binder,measurement,setting,value
"CD34 (Homo sapiens), P28906 (protein) MGSSHHHHHHSSGLVPRGSHMSTSLATSPTKPYTSSSPILSDIKAEIKCSGIREVKLTQGICLEQNKTSSCAEFKKDRGEGLARVLCGEEQADADAGAQVCSLLLAQSEVRPQCLLLVLANRTEISSKLQLMKKHQSDLKKLGILDFTEQDVASHQSYSQKT",glycan array binding signal (z-score),[8],0.06
same,glycan array binding signal (z-score),[4],-1.26

# Source: the supplement of paper PMC8728848
